Article PMC10518010, “The leaderless communication peptide (LCP) class of quorum-sensing peptides is broadly distributed among Firmicutes” (Nature Communications, 2023)

System: RopBss (Streptococcus salivarius DS85_40B)
Test: EMSA
Conditions: LCPss peptide 1 uM, text does not separate apo and LCPss-bound; EMSA: 0.5 uM oligoduplex, 20 mM Tris pH 7.5, 0.8 M NaCl, 12% glycerol, 100 uM zinc sulfate, 15 min 37 C, gel at 4 C; recombinant protein; protein details: N-terminal His6 (pET-28a); label: none (ethidium bromide stain)

“TGCCACCTCCATACTATGTAACATATTTGTGACTATGATACAT (double strand) [LCPss promoter RopBss site, 43-bp oligoduplex (EMSA)]”: binds.

The exact form of at least one protein or probe is not confirmed. At least one verdict was read from the data and is not stated in words by the source.
